Source: patent US5384260A, “Detection of onset of antiestrogen resistance in breast cancer” (Board of Regents, The University of Texas System, priority 1993, dated 1995)
The name of at least one read-out is uncertain.

System: human breast tumors
Assay: HPLC and mass spectrometry of tamoxifen metabolites in human breast tumors failing tamoxifen (Example 3)
Assay type: in vivo
Conditions: human breast cancer biopsy specimen, tamoxifen 20 mgs/day > one year
Source text: Human breast tumors from various patients who failed tamoxifen therapy (20 mgs/day>one year) were obtained from the Breast Cancer Tumor Bank. A portion of the tumor was extracted, irradiated and analyzed by Mass Spectrometry (procedure described below). Tumor tissue was also obtained from an in vivo nude mouse model of acquired tamoxifen resistance. MCF-7 human breast tumors were harvested from nude mice after the development of tamoxifen resistance (4-6 months of tamoxifen administration, 500 ug/day). These tissues were frozen at -20° C. until analysis. Frozen tissue samples were weighed, homogenized, and extracted. […]
The HPLC system consisted of a Beckman model 320 gradient liquid chromatograph, two model 110A pumps, and a model 420 controller. […] The fluorescence of photochemically activated compounds was detected with an Applied Biosystems 980 fluorometer with excitation wavelength set at 266 nm. Retention times and peak heights were recorded with a Spectraphysics 4100 integrator.
Non-irradiated samples were also injected onto the HPLC column and fractions were collected every minute. Fractionations corresponding to the retention times noted for the bisphenol and monophenol tamoxifen were further evaluated using mass-Spectrometry. […] Spectra were recorded at 70 eV over the mass range of 70-500 at 10 seconds per decade with a resolution of 1000. […]

## CCC(=C(c1ccccc1)c1ccc(OCCNC)cc1)c1ccccc1 [N-desmethyltamoxifen]
  Concentration in human breast cancer tissue: 200-400 mg/gm
